For ten molecules, binding results are on record in PMC7132099.

Amino acid sequences for entries named in this document (tags omitted).
UniProt Q80Y73: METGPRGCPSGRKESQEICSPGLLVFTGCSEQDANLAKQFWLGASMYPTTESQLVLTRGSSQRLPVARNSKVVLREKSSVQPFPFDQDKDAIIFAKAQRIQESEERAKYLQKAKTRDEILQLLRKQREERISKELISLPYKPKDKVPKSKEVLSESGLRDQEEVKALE
UniProt O35286: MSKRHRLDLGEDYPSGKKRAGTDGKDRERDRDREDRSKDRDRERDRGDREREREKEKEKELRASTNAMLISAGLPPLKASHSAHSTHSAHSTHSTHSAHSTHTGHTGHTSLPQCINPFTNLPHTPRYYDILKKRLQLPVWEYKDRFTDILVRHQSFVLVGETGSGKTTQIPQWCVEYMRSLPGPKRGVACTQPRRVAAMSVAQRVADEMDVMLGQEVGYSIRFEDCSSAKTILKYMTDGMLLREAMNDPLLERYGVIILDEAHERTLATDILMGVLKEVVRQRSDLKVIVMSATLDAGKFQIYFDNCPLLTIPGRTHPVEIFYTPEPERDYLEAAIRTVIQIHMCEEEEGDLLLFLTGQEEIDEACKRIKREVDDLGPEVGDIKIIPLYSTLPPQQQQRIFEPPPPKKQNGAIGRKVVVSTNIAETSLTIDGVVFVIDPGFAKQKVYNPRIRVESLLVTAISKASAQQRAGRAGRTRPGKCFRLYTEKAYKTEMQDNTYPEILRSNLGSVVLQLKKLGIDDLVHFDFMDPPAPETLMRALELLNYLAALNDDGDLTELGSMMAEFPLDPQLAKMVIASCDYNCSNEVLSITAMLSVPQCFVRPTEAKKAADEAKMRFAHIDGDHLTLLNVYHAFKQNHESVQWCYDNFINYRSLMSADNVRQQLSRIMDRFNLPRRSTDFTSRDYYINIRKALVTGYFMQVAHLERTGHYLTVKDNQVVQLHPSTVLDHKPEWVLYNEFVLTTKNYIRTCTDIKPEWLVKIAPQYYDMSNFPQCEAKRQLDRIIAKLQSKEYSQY
UniProt P16627: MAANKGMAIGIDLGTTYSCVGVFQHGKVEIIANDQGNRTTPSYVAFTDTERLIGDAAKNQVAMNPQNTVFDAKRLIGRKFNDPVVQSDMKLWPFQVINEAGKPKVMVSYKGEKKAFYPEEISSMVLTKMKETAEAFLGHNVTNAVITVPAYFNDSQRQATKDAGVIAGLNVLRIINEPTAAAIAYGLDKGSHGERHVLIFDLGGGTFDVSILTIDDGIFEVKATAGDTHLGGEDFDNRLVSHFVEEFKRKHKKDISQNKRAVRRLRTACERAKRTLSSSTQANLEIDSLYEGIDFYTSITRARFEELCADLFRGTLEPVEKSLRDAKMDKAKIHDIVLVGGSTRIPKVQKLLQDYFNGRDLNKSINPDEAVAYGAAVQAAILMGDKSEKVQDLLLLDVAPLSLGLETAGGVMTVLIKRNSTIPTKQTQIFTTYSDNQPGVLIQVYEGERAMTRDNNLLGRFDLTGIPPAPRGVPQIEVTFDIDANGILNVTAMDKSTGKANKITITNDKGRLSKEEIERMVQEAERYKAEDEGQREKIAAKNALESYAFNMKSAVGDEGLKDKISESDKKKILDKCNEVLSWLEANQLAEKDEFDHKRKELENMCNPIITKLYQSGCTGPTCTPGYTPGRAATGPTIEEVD
UniProt P48722: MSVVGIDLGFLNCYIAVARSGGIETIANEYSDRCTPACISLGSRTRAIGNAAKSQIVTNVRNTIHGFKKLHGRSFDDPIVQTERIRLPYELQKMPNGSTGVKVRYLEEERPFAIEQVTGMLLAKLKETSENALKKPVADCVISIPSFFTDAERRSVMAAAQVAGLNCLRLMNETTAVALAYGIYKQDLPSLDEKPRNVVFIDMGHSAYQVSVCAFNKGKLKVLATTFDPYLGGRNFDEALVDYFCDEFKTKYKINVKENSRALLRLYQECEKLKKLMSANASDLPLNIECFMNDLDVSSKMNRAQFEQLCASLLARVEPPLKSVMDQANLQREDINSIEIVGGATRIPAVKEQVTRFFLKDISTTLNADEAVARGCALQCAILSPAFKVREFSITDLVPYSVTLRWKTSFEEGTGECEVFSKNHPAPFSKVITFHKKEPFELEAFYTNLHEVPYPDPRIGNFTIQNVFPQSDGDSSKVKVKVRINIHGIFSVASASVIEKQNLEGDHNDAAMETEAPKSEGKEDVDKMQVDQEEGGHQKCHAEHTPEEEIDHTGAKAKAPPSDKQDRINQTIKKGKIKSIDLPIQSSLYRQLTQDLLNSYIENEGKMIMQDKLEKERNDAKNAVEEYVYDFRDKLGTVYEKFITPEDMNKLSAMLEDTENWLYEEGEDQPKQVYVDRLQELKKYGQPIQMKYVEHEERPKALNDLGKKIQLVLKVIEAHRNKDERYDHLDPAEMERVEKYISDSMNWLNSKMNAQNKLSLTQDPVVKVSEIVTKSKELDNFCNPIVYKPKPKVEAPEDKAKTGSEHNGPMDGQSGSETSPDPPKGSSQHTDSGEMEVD
UniProt P05214: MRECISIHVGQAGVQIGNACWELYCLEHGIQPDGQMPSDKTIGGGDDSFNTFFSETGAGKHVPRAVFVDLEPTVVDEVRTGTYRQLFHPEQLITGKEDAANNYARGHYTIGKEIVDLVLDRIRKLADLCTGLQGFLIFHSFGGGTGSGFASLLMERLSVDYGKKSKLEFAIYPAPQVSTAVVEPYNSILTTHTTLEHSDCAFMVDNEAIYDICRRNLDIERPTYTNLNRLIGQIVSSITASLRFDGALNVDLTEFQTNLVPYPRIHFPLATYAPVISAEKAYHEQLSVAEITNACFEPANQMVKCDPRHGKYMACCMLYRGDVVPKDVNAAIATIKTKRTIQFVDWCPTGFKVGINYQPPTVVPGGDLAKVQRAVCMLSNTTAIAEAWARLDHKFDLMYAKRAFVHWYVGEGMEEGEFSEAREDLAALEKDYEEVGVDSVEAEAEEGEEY
UniProt P99024: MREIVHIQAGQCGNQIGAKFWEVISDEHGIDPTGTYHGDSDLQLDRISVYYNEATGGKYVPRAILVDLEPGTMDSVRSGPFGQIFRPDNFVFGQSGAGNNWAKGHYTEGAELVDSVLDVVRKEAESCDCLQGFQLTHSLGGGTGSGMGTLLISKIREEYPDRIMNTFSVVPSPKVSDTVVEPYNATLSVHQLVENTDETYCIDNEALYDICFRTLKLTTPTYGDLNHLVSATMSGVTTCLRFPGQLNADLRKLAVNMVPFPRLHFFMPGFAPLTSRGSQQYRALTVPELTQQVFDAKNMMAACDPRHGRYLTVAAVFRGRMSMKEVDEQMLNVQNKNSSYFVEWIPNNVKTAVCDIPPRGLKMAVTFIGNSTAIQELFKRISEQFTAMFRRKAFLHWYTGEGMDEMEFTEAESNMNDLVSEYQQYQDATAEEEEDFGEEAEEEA

No constants are given. Whether binding was seen depends on the method and setting. Binding seen in cells or lysates may run through a third protein. A yes stands for co-enrichment or nearness to the bait. Other partners may have been found.

For the assay, the target named is HOATZ (Hoatzin; product of 4833427G06Rik) (mouse (endogenous in testis)) (UniProt Q80Y73). Kind of assay: affinity purification with mass spectrometry; testis homogenates of wild-type and Hoatz-/- mice incubated with rabbit polyclonal anti-HOATZ IgG cross-linked to magnetic beads; eluates analysed by LC-MS; hits: specific to or >3-fold more peptide-to-spectrum matches in wild type.

Turning to “DEAH-box helicase 15 (DHX15) (from UniProt O35286 1-795)”, the binding result is listed as “binds”.
The value for HSPA1L (from UniProt P16627 1-641) was “binds”; that for HSPA4L (from UniProt P48722 1-838) was “binds”; that for TUBA3A (from UniProt P05214 1-450) was “binds”.
The value for TUBB5 (from UniProt P99024 1-444) was “binds”.

B1: apoptotic chromatin condensation inducer 1 (ACIN1) (protein, UniProt Q9JIX8 1-1338)
chain: MWGRKRPNSSGETRGILSGNRGVDYGSGRGQSGPFEGRWRKLPKMPEAVGTDPSTSRKMAELEEVTLDGKPLQALRVTDLKAALEQRGLAKSGQKSALVKRLKGALMLENLQKHSTPHAAFQPNSQIGEEMSQNSFIKQYLEKQQELLRQRLEREAREAAELEEASAESEDEMTHPEGVASLLPPDFQSSLNRPELELSTHSPRKSSSFSEEKGESDDEKPRKGERRSSRVRQAKSKLPEYSQTAEEEEDQETPSRNLRVRADRNLKIEEEEEEEEEEEDDDDEEEEEVDEAQKSREAEAPTLKQFEDEEGEERTRAKPEKVVDEKPLNIRSQEKGELEKGGRVTRSQEEARRSHLARQQQEKETQIVSLPQEENEVKSSQSLEEKSQSPSPPPLPEDLEKAPVVLQPEQIVSEEETPPPLLTKEASSPPTHIQLQEEMEPVEGPAPPVLIQLSPPNTDAGAREPLASPHPAQLLRSLSPLSGTTDTKAESPAGRVSDESVLPLAQKSSLPECSTQKGVESEREKSAPLPLTVEEFAPAKGITEEPMKKQSLEQKEGRRASHALFPEHSGKQSADSSSSRSSSPSSSSSPSRSPSPDSVASRPQSSPGSKQRDGAQARVHANPHERPKMGSRSTSESRSRSRSRSRSASSSSRKSLSPGVSRDSNTSYTETKDPSCGQEAAAPSGPQLQVLEPKEKAPTFSASVRGRHLSHPEPEQQHVIQRLQPEQGSPKKCEAEEAEPPAATQPQTSETQISHLLESERTHHTVEEKEEVTMDTSENRPENEVPEPPLPVADQVSNDERPEGGAEEEEKKESSMPKSFKRKISVVSATKGVQAGNSDTEGGQPGRKRRWGASTAATQKKPSISITTESLKSLIPDIKPLAGQEAVVDLHADDSRISEDETERNGDDGTHDKGLKICRTVTQVVPAEGQENGQREEEEEKEPEAELPAPPQVSVEVALPPPVEHEVKKVTLGDTLTRRSISQQKSGVSITIDDPVRTAQVPSPPRGKISNIVHISNLVRPFTLGQLKELLGRTGTLVEEAFWIDKIKSHCFVTYSTVEEAVATRTALHGVKWPQSNPKFLCADYAEQDELDYHRGLLVDRPSETKAEEQGAPRPLHPPPPPPVQPPPHPRAEQREQERAVREQWAEREREMERRERTRSEREWDRDKVREGPRSRSRSRDRRRKERAKSKEKKSEKKEKAQEEPPAKLLDDLFRKTKAAPCIYWLPLTESQIVQKEAEQAERAKEREKRRKEREEEEQKEREKEAERERNRQLEREKRREHSRERERDRERERDRGDRERERERDRDRGRERDRRDTKRHSRSRSRSTPVRDRGGRR
Regarding B1, the binding result was “binds”.

B2: enolase 4 (ENO4) (enzyme, UniProt Q8C042 1-619)
chain: MGDEDGGRRGGITRDLQKLKQQAMAYYQENDVPRKLEDLLNSTFYLQPADVYGHLKANYFSKLAKPPSICKIVGKTILDGLGLPTLQVEISCTIQNFPKYICAVAIPTHFEVVENALPEALDAEDSERAQAVNTAVQWINQSITEELWGLVPSNQAEVDHRLRTFFEHKVQEDKERKELEKSQEELVPAPPPVTLPPPPPPPPPPPSKKKGQKAGRRDTLLEKPVSPPEPPEPVLHGSMAIGAVSLAVAKASATLASDPLYLTLASLKHDQEQPSTFSMPLLMGSVLSCGKSSPGKLHLMKEVICIPSPGLTAKQSVELLLEIQKQVNRAMETLPPPKQETKKGHNGSKRAQPPITGKVSHLGCLTINYDAIEQPLLLLQGICSNLGLELGVNFHLAINCAGHELMDYSKGKYEVMVGTHKSAAEMVELYVDLINKYPSIIALIDPFRKEDAEQWDSLYAALASRCYLIAGAASGSVSKLLECRNISTLKSHGLIIKHTNQTTMSDLVEITHLINGKKLLAVFGSTDSESSDDSLVDLAVGFGARFIKLGGLSRGERMTKYNRLLAIEEELIQRGVWGFSEEHNFSFFQEDATATMAEETLGLLDSIFPTEVIEESAKT
In the case of B2, the binding result is “binds”.

B3: small nuclear ribonucleoprotein U4/U6.U5 subunit 27 (SNRNP27) (protein, UniProt Q8K194 1-155)
chain: MGRSRSRSPRRERRRSRSTSRDRERRRRERSRSRERDRRRSRSRSPHRRRSRSPRRHRSTSPSPSRLKERRDEEKKETKEIKNKERQITEEDLEGKTEEEIEMMKLMGFASFDSTKGKKVDGSVNAYAINVSQKRKYRQYMNRKGGFNRPLDFIA
For B3, the binding entry is reported as “binds”.

B4: RNA binding protein with serine rich domain 1 (RNPS1) (protein, UniProt Q99M28 1-305)
chain: MDLSGVKKKSLLGVKENNKKSSTRAPSPTKRKDRSDEKSKDRSKDKGATKESSEKDRGRDKTRKRRSASSGSSSTRSRSSSTSSSGSSTSTGSSSGSSSSSASSRSGSSSTSRSSSSSSSSGSPSPSRRRHDNRRRSRSKSKPPKRDEKERKRRSPSPKPTKVHIGRLTRNVTKDHIMEIFSTYGKIKMIDMPVERMHPHLSKGYAYVEFENPDEAEKALKHMDGGQIDGQEITATAVLAPWPRPPPRRFSPPRRMLPPPPMWRRSPPRMRRRSRSPRRRSPVRRRSRSPGRRRHRSRSSSNSSR
For the molecule B4, the binding entry is recorded as “binds”.

B5: arginine and serine rich coiled-coil 1 (RSRC1) (protein, UniProt Q9DBU6 1-334)
chain: MGRRSSDTEEESRSKRKKKHRRRSSSSSSSDSRTYSRKKGGRRPRSDSRSWSRDRQLRSHSYERRRRRRSSSSSSYGSRRKRSRSRSRGRGKPYRVQRSRSKSRTRRSRSRPRPRSHSRSSERSSHRRTRSRSRDRDRRKVRDKEKREKEKDKGKDKEVHSIKRGDSGNIKAGLEHLPPAEQAKARLQLVLEAAAKADEALKAKERSEEEAKRRKEEDQATLVEQVKRVKEIEAIESDSFVQQTFRSSKDVKKAVEPSEVQHVTAASGPASAAAEPPSTGKEIDPDSIPTAIKYQDDNSLAHPNLFIEKAEAEEKWFKRLIALRQERLMGSPVA
As for B5, the binding result is recorded as “binds”.
